Results are given in words; binding and its absence hold for the method and conditions named. Binding seen in cells or lysates may run through a third protein. Some results given as binding are weak or reduced against the parent protein; the word gives no strength. For part of these data: Tags and fused reporters may be left off the sequences shown.
Assays:
Test in all cases: co-IP; plasmids co-transfected into HEK293T cells; lysates, Dynabeads Protein G with anti-FLAG, anti-HA or anti-MYC antibody, overnight 4 °C, washes PBS 0.1% Tween
[1] = biological target: T1, ADNP-Cter (686–1108) (mouse) (UniProt Q9Z103)
T1 sequence: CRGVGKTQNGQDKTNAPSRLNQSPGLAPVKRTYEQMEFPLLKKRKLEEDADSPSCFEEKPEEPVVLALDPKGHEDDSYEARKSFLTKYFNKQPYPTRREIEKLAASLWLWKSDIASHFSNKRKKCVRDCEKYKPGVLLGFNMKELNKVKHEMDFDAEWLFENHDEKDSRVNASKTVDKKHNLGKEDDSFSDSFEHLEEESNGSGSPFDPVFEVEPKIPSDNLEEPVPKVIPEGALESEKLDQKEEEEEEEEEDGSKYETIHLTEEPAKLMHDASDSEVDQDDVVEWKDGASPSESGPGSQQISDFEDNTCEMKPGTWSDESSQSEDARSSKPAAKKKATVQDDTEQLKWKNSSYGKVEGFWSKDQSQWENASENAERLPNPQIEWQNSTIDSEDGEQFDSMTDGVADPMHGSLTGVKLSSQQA

The chains behind the UniProt entries cited, without tags or fusion partners.
UniProt Q02248: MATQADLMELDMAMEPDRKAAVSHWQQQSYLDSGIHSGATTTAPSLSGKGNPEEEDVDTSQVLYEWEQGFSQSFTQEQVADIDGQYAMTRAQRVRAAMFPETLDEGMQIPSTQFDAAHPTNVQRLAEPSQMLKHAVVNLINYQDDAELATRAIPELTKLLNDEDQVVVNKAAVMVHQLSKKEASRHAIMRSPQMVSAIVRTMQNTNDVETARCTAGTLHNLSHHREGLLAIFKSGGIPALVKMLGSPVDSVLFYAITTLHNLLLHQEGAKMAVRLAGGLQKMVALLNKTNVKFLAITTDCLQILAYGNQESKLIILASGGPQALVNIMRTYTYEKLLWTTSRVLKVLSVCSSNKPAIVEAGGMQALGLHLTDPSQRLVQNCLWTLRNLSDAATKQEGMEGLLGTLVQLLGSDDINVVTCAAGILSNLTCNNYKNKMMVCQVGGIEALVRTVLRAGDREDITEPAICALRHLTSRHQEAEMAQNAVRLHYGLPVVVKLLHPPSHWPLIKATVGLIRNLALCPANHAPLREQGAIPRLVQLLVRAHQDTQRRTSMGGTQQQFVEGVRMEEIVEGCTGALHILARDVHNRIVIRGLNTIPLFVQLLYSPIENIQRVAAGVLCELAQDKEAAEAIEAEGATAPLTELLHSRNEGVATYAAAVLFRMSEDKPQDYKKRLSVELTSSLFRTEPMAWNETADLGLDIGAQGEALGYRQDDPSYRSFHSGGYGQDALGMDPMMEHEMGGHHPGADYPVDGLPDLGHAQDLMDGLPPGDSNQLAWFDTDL

[2] = biological target: T2, ADNP-Nter without NAP (mouse) (UniProt Q9Z103)
T2 sequence: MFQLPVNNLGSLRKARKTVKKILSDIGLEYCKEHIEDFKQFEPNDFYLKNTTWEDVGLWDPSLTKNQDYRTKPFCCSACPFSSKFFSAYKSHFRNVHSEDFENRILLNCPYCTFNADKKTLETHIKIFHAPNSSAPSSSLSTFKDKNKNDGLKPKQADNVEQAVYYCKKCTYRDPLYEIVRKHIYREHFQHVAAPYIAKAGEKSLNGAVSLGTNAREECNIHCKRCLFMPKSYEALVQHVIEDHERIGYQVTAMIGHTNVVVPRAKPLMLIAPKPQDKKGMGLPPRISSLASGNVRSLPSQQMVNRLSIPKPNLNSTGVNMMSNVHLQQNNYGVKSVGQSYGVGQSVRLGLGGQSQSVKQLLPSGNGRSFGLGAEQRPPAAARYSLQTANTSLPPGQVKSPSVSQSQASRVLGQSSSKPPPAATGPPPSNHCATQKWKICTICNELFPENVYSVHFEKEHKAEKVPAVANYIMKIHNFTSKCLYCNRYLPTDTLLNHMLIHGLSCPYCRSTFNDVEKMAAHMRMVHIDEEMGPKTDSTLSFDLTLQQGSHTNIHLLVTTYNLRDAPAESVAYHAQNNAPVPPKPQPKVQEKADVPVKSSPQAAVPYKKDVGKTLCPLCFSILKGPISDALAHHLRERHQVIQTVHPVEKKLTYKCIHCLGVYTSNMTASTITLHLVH

[3] = biological target: T3, FLAG-ADNP-Nter (1–685) (mouse) (UniProt Q9Z103)
T3 sequence: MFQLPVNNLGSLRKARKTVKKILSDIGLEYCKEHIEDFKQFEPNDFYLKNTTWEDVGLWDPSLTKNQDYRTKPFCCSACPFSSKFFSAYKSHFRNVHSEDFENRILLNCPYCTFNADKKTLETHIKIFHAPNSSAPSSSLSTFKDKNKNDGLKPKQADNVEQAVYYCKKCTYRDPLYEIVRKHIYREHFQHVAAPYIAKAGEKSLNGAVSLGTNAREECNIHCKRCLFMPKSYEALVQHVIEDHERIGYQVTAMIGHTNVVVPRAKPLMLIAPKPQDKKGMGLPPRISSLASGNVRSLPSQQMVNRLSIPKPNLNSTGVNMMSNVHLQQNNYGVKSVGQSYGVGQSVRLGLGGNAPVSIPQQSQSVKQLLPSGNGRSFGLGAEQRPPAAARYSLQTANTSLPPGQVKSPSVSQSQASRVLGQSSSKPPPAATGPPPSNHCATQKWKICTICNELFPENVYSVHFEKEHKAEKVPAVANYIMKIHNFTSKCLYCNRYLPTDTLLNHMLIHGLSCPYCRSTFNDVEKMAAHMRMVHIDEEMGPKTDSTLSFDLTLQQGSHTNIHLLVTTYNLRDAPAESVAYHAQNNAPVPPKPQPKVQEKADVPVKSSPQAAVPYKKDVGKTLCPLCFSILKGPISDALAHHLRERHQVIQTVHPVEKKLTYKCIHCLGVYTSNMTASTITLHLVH

binding [1]: no binding | binding [2]: binds | binding [3]: binds
Substance: Myc-β-catenin (from UniProt Q02248 1-781)

Reference: PMC7293280
